Measured values published in patent publication US10098964B2, “Inclusion complexes and methods for making the same” (The Board of Trustees of the University of Illinois, priority 2015, dated 2018).

Legend:
[1] = R-Index by ranking sensory difference test of microencapsulated tributyrin in infant formula (Example 2); design: species or system human
[2] = R-index measure by rating method, microencapsulated and free TB in infant formula (Example 5); design: species or system human

CCCC(=O)OCC(COC(=O)CCC)OC(=O)CCC [Tributyrin, 1,3-di(butanoyloxy)propan-2-yl butanoate]
Estimated d′ value (degree of difference) ([1]; in infant formula vs noise): 1.24 | Average R-Index ([1]; in infant formula vs noise (no tributyrin), 33 panelists, scores range 50 to 100): 80.5^A | Average individual R-index ([2]; individual judge R-index, ANOVA/LSD, 0.2 g TB/serving infant formula): 80.5^A*** | Calculated R-index (pooled) ([2]; pooled, over 57.95% significantly different from control (n = 170, α = 0.01, two-tailed)): 80.6**

Marks after values point to notes of the source that are not given here.
